Laboratory results as given in patent US9133172B2, “Dihydrofuran azetidine derivatives as antiparasitic agents” (Zoetis Services LLC, priority 2012, dated 2015).
Some results were stated once for a whole list of compounds, not compound by compound.

tested on: Ctenocephalides felis; test: Flea (Ctenocephalides felis) Membrane Feed Assay-Adult; details: adult fleas fed approximately 2 hours on treated citrated bovine blood; knockdown and/or death observed at approximately 2 and 24 hours

Compound	lethal dose 90% (LD^90) [µg/mL]
CS(=O)(=O)CC(=O)N1CC(F)(c2ccc(C3=COC(c4cc(Cl)c(Cl)c(Cl)c4)(C(F)(F)F)C3)cc2)C1 (stereo not drawn) [Example 3, 1-(3-{4-[5-(3,4,5-trichloro-phenyl)-5-trifluoromethyl-4,5-dihydro-furan-3-yl]-phenyl}-3-fluoro-azetidin-1-yl)-2-methanesulfonyl-ethanone]	> 3
CC(C)C(=O)N1CC(F)(c2ccc(C3=COC(c4cc(Cl)c(Cl)c(Cl)c4)(C(F)(F)F)C3)cc2)C1 (stereo not drawn) [Example 4, 1-(3-fluoro-3-{4-[5-(3,4,5-trichloro-phenyl)-5-trifluoromethyl-4,5-di-hydro-furan-3-yl]-phenyl}-azetidin-1-yl)-2-methyl-propan-1-one]	> 3
CS(=O)(=O)CC(=O)N1CC(F)(c2ccc(C3=COC(c4cc(Cl)cc(Cl)c4)(C(F)(F)F)C3)cc2)C1 (stereo not drawn) [Example 1, 1-(3-(4-(5-(3,5-dichlorophenyl)-5-(trifluoromethyl)-4,5-dihydrofuran-3-yl)phenyl)-3-fluoroazetidin-1-yl)-2-(methylsulfonyl)ethanone]	> 3
CC(C)C(=O)N1CC(F)(c2ccc(C3=COC(c4cc(Cl)cc(Cl)c4)(C(F)(F)F)C3)cc2)C1 (stereo not drawn) [Example 2, 1-(3-(4-(5-(3,5-dichlorophenyl)-5-(trifluoromethyl)-4,5-dihydrofuran-3-yl)phenyl)-3-fluoroazetidin-1-yl)-2-methylpropan-1-one]	> 3
CC(C)C(=O)N1CC(F)(c2ccc(C3=COC(c4cc(Cl)c(F)c(Cl)c4)(C(F)(F)F)C3)cc2)C1 (stereo not drawn) [Example 6, 1-(3-{4-[5-(3,5-dichloro-4-fluoro-phenyl)-5-trifluoromethyl-4,5-dihydro-furan-3-yl]-phenyl}-3-fluoro-azetidin-1-yl)-2-methyl-propan-1-one]	> 3
CS(=O)(=O)CC(=O)N1CC(F)(c2ccc(C3=COC(c4cc(Cl)c(F)c(Cl)c4)(C(F)(F)F)C3)cc2)C1 (stereo not drawn) [Example 5, 1-(3-{4-[5-(3,5-dichloro-4-fluoro-phenyl)-5-trifluoromethyl-4,5-dihydro-furan-3-yl]-phenyl}-3-fluoro-azetidin-1-yl)-2-methanesulfonyl-ethanone]	> 3
